# In the supplement of paper PMC11006884:
# Sequences of proteins named here, by UniProt entry; tags and fusion partners are left off. A change or cut given only in a name is not applied to a line headed by its entry.
# UniProt P08134, whole entry: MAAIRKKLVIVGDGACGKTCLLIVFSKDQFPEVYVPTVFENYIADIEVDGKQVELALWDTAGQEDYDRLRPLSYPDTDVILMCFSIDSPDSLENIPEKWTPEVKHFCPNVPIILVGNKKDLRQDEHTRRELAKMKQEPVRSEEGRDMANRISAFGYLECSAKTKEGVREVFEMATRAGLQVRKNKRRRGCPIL
# UniProt P15924: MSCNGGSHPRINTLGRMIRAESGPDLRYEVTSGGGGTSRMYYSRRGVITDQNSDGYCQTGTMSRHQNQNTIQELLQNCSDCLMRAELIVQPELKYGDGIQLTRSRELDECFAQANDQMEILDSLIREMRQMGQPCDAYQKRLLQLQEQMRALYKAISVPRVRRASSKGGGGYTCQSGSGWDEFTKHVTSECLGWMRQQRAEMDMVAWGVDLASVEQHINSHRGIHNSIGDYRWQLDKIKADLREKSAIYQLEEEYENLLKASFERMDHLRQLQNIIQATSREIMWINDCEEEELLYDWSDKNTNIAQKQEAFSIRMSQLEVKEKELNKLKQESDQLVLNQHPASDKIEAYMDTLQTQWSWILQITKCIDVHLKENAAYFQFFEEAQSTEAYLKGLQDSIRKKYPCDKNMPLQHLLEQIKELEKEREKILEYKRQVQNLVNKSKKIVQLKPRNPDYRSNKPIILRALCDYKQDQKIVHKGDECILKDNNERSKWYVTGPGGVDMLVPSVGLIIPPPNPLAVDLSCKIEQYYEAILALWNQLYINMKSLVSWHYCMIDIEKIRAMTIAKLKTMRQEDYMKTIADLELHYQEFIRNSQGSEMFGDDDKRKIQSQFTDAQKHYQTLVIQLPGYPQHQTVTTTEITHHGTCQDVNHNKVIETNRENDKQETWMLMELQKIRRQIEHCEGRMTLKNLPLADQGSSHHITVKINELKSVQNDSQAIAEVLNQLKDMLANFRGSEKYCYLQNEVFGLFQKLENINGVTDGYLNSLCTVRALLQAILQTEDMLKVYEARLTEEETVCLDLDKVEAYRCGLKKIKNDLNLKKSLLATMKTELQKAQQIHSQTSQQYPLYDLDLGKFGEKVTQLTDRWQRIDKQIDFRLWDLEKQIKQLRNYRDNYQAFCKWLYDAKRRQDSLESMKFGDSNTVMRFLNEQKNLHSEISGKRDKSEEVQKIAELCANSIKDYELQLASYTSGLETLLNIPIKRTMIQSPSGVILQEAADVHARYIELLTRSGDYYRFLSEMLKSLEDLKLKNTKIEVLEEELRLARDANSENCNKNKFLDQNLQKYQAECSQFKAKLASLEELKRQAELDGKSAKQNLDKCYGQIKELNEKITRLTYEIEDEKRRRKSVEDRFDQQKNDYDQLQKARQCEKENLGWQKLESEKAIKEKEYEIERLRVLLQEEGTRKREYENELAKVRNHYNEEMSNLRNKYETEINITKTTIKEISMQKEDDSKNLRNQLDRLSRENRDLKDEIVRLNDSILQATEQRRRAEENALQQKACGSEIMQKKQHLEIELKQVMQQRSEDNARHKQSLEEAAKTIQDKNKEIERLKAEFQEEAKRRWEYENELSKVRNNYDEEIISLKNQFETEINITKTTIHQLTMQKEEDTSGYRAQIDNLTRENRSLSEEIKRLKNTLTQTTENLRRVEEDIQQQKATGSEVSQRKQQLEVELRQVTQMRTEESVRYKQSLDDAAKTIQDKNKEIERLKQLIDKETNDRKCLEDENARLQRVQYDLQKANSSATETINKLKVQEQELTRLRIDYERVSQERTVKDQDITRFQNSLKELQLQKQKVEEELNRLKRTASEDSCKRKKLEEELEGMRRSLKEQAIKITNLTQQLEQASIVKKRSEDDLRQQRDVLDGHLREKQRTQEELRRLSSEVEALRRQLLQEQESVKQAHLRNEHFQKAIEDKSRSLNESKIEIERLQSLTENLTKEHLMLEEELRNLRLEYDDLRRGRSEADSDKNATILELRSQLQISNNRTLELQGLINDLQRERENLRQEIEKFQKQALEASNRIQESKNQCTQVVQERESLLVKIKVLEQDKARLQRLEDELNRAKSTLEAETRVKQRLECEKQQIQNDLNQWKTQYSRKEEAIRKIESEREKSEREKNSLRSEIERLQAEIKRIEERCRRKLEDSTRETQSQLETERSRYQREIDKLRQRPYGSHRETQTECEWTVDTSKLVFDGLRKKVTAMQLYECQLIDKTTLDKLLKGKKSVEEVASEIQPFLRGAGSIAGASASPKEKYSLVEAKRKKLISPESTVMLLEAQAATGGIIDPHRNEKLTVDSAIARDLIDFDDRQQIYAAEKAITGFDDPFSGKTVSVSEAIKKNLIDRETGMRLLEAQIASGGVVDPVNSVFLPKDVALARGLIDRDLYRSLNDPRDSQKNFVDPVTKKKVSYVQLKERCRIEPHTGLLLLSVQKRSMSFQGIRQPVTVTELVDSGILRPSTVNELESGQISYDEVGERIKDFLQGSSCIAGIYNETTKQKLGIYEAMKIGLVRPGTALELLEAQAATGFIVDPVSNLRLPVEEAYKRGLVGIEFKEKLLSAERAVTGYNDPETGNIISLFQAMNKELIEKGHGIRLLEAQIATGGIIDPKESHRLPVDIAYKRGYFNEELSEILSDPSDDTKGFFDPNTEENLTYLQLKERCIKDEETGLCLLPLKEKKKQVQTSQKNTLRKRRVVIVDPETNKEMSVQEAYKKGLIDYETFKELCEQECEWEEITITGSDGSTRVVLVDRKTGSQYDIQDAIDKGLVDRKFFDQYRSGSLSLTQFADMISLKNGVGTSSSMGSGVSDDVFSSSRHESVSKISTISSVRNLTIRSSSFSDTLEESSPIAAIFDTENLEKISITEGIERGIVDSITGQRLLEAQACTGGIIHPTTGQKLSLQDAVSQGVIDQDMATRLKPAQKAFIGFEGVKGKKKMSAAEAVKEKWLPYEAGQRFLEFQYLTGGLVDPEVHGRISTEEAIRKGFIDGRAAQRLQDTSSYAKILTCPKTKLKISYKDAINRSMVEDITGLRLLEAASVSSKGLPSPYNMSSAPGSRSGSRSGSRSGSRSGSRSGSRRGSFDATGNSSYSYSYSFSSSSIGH
# UniProt P0DMV8, whole entry, looked up: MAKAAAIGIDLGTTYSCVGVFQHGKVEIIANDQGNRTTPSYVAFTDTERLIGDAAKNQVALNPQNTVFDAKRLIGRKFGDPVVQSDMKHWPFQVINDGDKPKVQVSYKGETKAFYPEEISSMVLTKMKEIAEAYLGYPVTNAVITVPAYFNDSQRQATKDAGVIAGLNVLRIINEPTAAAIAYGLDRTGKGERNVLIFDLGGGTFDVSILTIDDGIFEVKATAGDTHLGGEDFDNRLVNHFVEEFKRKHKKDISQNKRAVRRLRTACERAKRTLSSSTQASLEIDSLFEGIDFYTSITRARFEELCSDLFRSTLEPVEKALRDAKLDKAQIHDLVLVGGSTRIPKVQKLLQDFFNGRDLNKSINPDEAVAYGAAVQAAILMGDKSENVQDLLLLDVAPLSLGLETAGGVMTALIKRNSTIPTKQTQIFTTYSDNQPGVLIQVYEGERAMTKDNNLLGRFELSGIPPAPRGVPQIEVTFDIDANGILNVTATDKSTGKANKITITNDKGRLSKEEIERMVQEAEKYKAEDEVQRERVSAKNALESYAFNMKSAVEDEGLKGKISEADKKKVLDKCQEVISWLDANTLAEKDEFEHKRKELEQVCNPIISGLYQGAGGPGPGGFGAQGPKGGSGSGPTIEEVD
# UniProt P14868: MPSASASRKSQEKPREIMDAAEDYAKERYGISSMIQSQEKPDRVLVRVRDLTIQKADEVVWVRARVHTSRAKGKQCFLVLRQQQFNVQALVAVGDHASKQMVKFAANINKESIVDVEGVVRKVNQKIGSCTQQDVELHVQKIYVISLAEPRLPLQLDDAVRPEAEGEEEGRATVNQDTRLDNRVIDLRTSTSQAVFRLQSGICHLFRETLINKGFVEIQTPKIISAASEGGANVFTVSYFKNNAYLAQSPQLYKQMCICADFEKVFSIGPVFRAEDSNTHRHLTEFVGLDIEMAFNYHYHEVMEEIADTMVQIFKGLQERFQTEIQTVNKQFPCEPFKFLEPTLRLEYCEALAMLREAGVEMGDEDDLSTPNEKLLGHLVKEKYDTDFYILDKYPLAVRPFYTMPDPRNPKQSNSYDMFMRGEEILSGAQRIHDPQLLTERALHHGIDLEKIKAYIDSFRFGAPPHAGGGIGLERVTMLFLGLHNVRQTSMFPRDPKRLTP
# UniProt P17812: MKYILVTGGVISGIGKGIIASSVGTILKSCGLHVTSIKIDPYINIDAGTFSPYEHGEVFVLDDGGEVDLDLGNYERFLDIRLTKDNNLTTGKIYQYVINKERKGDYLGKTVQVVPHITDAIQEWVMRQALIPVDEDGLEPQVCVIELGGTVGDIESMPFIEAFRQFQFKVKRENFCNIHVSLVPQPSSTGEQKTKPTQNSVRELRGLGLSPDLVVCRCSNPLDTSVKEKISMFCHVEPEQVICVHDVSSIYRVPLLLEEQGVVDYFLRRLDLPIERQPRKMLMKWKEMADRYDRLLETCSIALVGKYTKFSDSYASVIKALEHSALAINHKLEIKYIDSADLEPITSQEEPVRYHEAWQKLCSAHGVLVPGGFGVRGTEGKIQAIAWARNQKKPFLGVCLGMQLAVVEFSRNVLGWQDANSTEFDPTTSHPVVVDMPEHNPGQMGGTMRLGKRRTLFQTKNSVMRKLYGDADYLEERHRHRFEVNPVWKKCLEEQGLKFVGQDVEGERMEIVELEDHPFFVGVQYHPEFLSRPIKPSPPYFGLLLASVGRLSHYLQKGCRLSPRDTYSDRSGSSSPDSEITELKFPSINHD
# UniProt P09651: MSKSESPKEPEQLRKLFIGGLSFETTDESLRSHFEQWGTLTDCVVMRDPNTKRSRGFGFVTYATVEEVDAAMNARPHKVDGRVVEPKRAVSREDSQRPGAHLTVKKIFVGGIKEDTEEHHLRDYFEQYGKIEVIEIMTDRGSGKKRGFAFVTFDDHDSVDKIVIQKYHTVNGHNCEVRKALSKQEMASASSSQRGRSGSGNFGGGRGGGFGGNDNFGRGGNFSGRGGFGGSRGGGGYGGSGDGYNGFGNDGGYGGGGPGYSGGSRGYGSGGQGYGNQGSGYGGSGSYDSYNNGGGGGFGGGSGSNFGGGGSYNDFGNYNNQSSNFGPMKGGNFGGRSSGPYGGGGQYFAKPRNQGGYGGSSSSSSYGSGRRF
# UniProt P11413, whole entry, looked up: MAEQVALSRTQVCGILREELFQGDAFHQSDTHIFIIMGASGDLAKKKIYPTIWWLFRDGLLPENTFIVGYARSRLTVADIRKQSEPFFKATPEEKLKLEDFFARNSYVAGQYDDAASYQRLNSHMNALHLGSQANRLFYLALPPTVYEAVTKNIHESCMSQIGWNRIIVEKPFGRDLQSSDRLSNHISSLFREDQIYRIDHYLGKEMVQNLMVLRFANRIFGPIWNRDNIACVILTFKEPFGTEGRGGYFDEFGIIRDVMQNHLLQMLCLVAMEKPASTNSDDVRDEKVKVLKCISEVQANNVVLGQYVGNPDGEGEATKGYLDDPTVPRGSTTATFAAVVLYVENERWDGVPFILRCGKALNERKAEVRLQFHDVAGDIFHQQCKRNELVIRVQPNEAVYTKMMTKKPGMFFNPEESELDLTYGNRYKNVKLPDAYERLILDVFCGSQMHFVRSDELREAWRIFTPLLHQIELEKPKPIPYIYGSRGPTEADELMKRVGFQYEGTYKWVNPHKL
# UniProt P13807: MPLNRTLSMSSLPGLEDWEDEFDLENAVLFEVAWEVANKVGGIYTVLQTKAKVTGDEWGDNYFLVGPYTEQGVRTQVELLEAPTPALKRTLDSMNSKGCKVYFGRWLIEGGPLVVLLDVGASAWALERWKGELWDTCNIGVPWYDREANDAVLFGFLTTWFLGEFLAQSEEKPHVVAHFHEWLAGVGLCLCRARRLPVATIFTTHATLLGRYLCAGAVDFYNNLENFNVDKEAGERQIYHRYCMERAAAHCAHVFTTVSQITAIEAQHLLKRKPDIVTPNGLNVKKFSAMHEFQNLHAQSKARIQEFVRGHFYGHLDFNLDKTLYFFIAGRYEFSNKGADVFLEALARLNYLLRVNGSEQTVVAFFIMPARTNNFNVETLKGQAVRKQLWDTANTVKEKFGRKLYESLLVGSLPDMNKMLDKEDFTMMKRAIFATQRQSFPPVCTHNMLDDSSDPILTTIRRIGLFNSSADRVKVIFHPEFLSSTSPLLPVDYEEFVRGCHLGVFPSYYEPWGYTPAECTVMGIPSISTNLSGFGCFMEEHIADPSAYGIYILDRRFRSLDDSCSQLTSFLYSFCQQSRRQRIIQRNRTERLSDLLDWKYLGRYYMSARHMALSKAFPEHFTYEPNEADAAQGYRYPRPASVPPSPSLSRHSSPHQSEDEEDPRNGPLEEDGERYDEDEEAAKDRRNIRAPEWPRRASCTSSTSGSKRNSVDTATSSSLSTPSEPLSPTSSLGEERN
# The list shows a part of the results, in another mix than the full data.
# Compound: COC(=O)C#Cc1ccccc1 [methyl 3-phenylpropiolate]
# Assay: log2 ratio of iodoacetamide-alkyne labeling of the cysteine site, DMSO over compound (competition); higher = stronger covalent engagement of the cysteine by the compound, active = 1 or more
# Settings: 500 µM; treatment time 1 h; system: HEK293T cell lysate
# Procedure, shortened: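 HEK293T lysate (2 mg/mL) was incubated with electrophile (500 µM) or vehicle for 1 h at ambient temperature and then with iodoacetamide alkyne for 1 h. Labelled proteins were clicked to sCIP-TMT reagents, pooled, digested, enriched on streptavidin and measured by Orbitrap Eclipse LC-MS/MS with FAIMS, with FragPipe quantification. The per-cysteine log2 competition ratio is mean control-channel reporter intensity over mean compound-channel reporter intensity. Across three replicates with duplicate channels, cysteines quantified in only one replicate were excluded.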
row,Target,log2 ratio of iodoacetamide-alkyne labeling
1,ACTN1 C480 (UniProt P12814),inactive: -0.697
2,UniProt P08134_C107,inactive: -0.0351
3,IMPDH2 C140 (UniProt P12268),active: 1.11
4,DSP C3 (UniProt P15924),active: 1.14
5,UniProt P0DMV8_C574,inactive: 0.492
6,DSP C1855 (UniProt P15924),inactive: 0.107
7,APEH C30 (UniProt P13798),inactive: -0.0188
8,EEF2 C567 (UniProt P13639),inactive: 0.0358
9,DSP C174 (UniProt P15924),active: 1.06
10,CBR1 C226 (UniProt P16152),inactive: 0.0193
11,SP1 C604 (UniProt P08047),inactive: -0.0454
12,PDHB C306 (UniProt P11177),inactive: -0.122
13,DARS C349 (UniProt P14868),inactive: -0.0272
14,UniProt P17812_C218,inactive: -0.193
15,DSP C1052 (UniProt P15924),inactive: 0.439
16,DLD C85 (UniProt P09622),inactive: 0.873
17,HNRNPL C261 (UniProt P14866),inactive: -0.314
18,PLS3 C621 (UniProt P13797),inactive: 0.0187
19,HNRNPA1 C43 (UniProt P09651),inactive: -0.0112

# Look-ups from the list:
# DSP C3 (UniProt P15924) – log2 ratio of iodoacetamide-alkyne labeling: active: 1.14
# DSP C1052 (UniProt P15924) – log2 ratio of iodoacetamide-alkyne labeling: inactive: 0.439
# DSP C1855 (UniProt P15924) – log2 ratio of iodoacetamide-alkyne labeling: inactive: 0.107

# Additional records.

row,Target,log2 ratio of iodoacetamide-alkyne labeling
1,GOT1 C46 (UniProt P17174),inactive: -0.141
2,DSP C57 (UniProt P15924),inactive: 0.73
3,G6PD C294 (UniProt P11413),inactive: 0.282
4,PRKAR1A C362 (UniProt P10644),inactive: 0.0246
5,PARP1 C162 (UniProt P09874),inactive: 0.206
6,PCNA C162 (UniProt P12004),inactive: 0.16
7,CKMT1A C76 (UniProt P12532),inactive: -0.206
8,SLC25A6 C257 (UniProt P12236),inactive: 0.26
9,HSP90AB1 C590 (UniProt P08238),inactive: 0.067
10,G6PD C446 (UniProt P11413),inactive: -0.0338
11,HMGB1 C23 (UniProt P09429),inactive: 0.00505
12,XRCC5 C157 (UniProt P13010),inactive: 0.161
13,CAPN2 C341 (UniProt P17655),inactive: 0.0257
14,HSP90AA1 C597 (UniProt P07900),inactive: -0.0676
15,CAPN2 C39 (UniProt P17655),inactive: -0.194
16,IMPDH2 C468 (UniProt P12268),inactive: 0.0778
17,GYS1 C575 (UniProt P13807),inactive: 0.416
18,SNRNP70 C39 (UniProt P08621),inactive: 0.136
